PubChem BioAssay AID1159591 | NIAID – 2016

Screen: 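Which TLR signalling genes macrophages need for R848-driven Tnf promoter activity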
Cells: mouse RAW264.7 G9 macrophage reporter clone (GFP-p65, Tnf promoter-mCherry)
Knock-down reagent: single siRNA against mouse genes
Timing: cells assayed 48 to 72 hours after siRNA transfection; R848 for 16 hours before fixing
Conditions: R848 (TLR7/8 agonist) for 16 hours before fixation; dose not given
Read-out: 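After R848 for 16 hours, nuclear Tnf promoter mCherry signal imaged minus background, scaled per plate by median and MAD into robust z against non-targeting controls, averaged across replicates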
Direction: mean Tnf reporter z-score: higher = stronger Tnf promoter reporter signal than controls
Hit rule: 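Activity score from absolute z: steps above 1, 1.5, 2 and 2.5 give 25 to 100; active cut not stated, but active genes here sit near z -1.5 or below, or 1.5 or above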
Meaning of the calls: active = reporter clearly up or down; inactive = little reporter change
The deposit covers 756 reagents; shown is an unselected part. In the full data, 130 (17%) got an active call. 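Active calls include both lower and higher Tnf reporter signal.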 The numbers tell different reagents against one gene apart. Not given: the amount of reagent.

target | reagent | mean Tnf reporter z-score | call
Map3k1 | 1 | 0.779 | inactive
Map3k1 | 2 | -1.37 | inactive
Map3k1 | 3 | -1.52 | active
Map3k1 | 4 | 0.682 | inactive
Map3k1 | 5 | -0.232 | inactive
Map3k1 | 6 | 0.348 | inactive
Traf6 | 1 | -0.355 | inactive
Traf6 | 2 | -1.86 | active
Traf6 | 3 | -2.12 | active
Traf6 | 4 | -0.488 | inactive
Traf6 | 5 | -1.28 | inactive
Traf6 | 6 | -1.4 | inactive
Rela | 1 | -0.381 | inactive
Rela | 2 | 0.113 | inactive
Rela | 3 | -2.26 | active
Rela | 4 | -1.66 | active
Rela | 5 | -1.31 | inactive
Rela | 6 | -1.5 | active
Il1rl1 | 1 | 1.85 | active
Il1rl1 | 2 | -0.94 | inactive
Il1rl1 | 3 | -1.02 | inactive
Il1rl1 | 4 | 0.59 | inactive
Il1rl1 | 5 | -1.1 | inactive
Il1rl1 | 6 | -0.355 | inactive
Map2k7 | 1 | 1.26 | inactive
Map2k7 | 2 | -0.104 | inactive
Map2k7 | 3 | -1.54 | active
Map2k7 | 4 | -0.917 | inactive
Map2k7 | 5 | -1.01 | inactive
Map2k7 | 6 | -0.791 | inactive
Rac1 | 1 | 0.126 | inactive
Rac1 | 2 | 1.12 | inactive
Rac1 | 3 | -0.786 | inactive
Rac1 | 4 | 0.26 | inactive
Rac1 | 5 | -3.15 | active
Rac1 | 6 | -0.0314 | inactive
Tlr7 | 1 | -1.69 | active
Tlr7 | 2 | -1.91 | active
Tlr7 | 3 | -2.49 | active
Tlr7 | 4 | -1.66 | active
Tlr7 | 5 | -1.93 | active
Tlr7 | 6 | -1.36 | inactive
Mapk10 | 1 | 0.977 | inactive
Mapk10 | 2 | 1.2 | inactive
Mapk10 | 3 | -0.798 | inactive
Mapk10 | 4 | 1.28 | inactive
Mapk10 | 5 | -0.928 | inactive
Mapk10 | 6 | 0.232 | inactive
Ifnb1 | 1 | 1.43 | inactive
Ifnb1 | 2 | -1.31 | inactive
Ifnb1 | 3 | -0.653 | inactive
Ifnb1 | 4 | 0.683 | inactive
Ifnb1 | 5 | -1.12 | inactive
Ifnb1 | 6 | -1.02 | inactive
Tank | 1 | -1.84 | active
Tank | 2 | 1.62 | active
Tank | 3 | 0.219 | inactive
Tank | 4 | 1.18 | inactive
Tank | 5 | 0.505 | inactive
Tank | 6 | 0.883 | inactive
Tab2 | 1 | 0.318 | inactive
Tab2 | 2 | 0.0984 | inactive
Tab2 | 3 | -0.961 | inactive
Tab2 | 4 | -1.07 | inactive
Tab2 | 5 | -0.811 | inactive
Tab2 | 6 | -0.138 | inactive

Continued, starting with the last 13 of the part before.
target | reagent | mean Tnf reporter z-score | call
Ifnb1 | 6 | -1.02 | inactive
Tank | 1 | -1.84 | active
Tank | 2 | 1.62 | active
Tank | 3 | 0.219 | inactive
Tank | 4 | 1.18 | inactive
Tank | 5 | 0.505 | inactive
Tank | 6 | 0.883 | inactive
Tab2 | 1 | 0.318 | inactive
Tab2 | 2 | 0.0984 | inactive
Tab2 | 3 | -0.961 | inactive
Tab2 | 4 | -1.07 | inactive
Tab2 | 5 | -0.811 | inactive
Tab2 | 6 | -0.138 | inactive
Rel | 1 | -0.467 | inactive
Rel | 2 | -0.0545 | inactive
Rel | 3 | -0.248 | inactive
Rel | 4 | -0.36 | inactive
Rel | 5 | -0.286 | inactive
Rel | 6 | -0.449 | inactive
Cyld | 1 | 0.121 | inactive
Cyld | 2 | -0.0517 | inactive
Cyld | 3 | -0.508 | inactive
Cyld | 4 | 0.989 | inactive
Cyld | 5 | -2.81 | active
Cyld | 6 | 0.815 | inactive
Dusp1 | 1 | 0.782 | inactive
Dusp1 | 2 | 0.294 | inactive
Dusp1 | 3 | 0.418 | inactive
Dusp1 | 4 | 0.211 | inactive
Dusp1 | 5 | -0.694 | inactive
Dusp1 | 6 | -0.942 | inactive
Tnfaip3 | 1 | 1.07 | inactive
Tnfaip3 | 2 | -0.0461 | inactive
Tnfaip3 | 3 | 0.312 | inactive
Tnfaip3 | 4 | 0.0599 | inactive
Tnfaip3 | 5 | 2.29 | active
Tnfaip3 | 6 | 0.229 | inactive
Tirap | 1 | 0.515 | inactive
Tirap | 2 | 0.287 | inactive
Tirap | 3 | -1.4 | inactive
Tirap | 4 | 1.49 | inactive
Tirap | 5 | 0.636 | inactive
Tirap | 6 | -0.687 | inactive
Pik3cg | 1 | 0.918 | inactive
Pik3cg | 2 | -2.77 | active
Pik3cg | 3 | -0.104 | inactive
Pik3cg | 4 | -0.505 | inactive
Pik3cg | 5 | -3.9 | active
Pik3cg | 6 | -3.37 | active
Ripk1 | 1 | -0.791 | inactive
Ripk1 | 2 | -0.149 | inactive
Ripk1 | 3 | 0.219 | inactive
Ripk1 | 4 | 0.275 | inactive
Ripk1 | 5 | -0.588 | inactive
Ripk1 | 6 | 1.7 | active
Tnf | 1 | -0.376 | inactive
Tnf | 2 | 1.3 | inactive
Tnf | 3 | -0.437 | inactive
Tnf | 4 | -0.0809 | inactive
Tnf | 5 | 0.426 | inactive
Tnf | 6 | -1.62 | active
